Drawing on PubChem BioAssay AID2685 (National Center for Advancing Translational Sciences (NCATS), 2010), this text covers AC50 and cell number change for 58 compounds.

A word on the AC50: it is the midpoint of the concentration-response curve, whichever way the signal moves.

This is one part of the list. The main result of the screen is listed elsewhere. These columns were measured beside it and carry no call. Compounds called inactive in the main read-out are mostly missing here. Words in brackets tell the shape of the fitted curve; partial curves, single points and poor fits give uncertain potencies.

A short description of the assay: qHTS Assay for Lipid Storage Modulators in Drosophila S3 Cells.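 As to cell number change: cells counted by Cell Tracker Red CMTPX staining in the red channel.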 Conditions: BODIPY lipid droplet fluorescence, 18-24 h; for cell number change: measured here: cell count max response, cells fed with added oleic acid. In short, it runs like this:
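Drosophila S3 cells loaded with oleic acid (400 uM, as added) and compounds at several concentrations; lipid droplets imaged by 488-nm laser-scanning cytometry, 500–530 nm intensity and object ratio to cell channel. Percent activity normalized to 20 uM Triacsin C.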
(qHTS replaces the single test concentration by a dilution series.)

Setting [1] is: measured here: cell number channel AC50, cells fed with added oleic acid.
Setting [2] is: measured here: lipid fluorescence (Fed channel) AC50, cells fed with added oleic acid.

Turning to `O=C(CSC1=NCCS1)Nc1cccc2ccccc12`, the AC50 under setting [1] was 0.0291 µM [rising, full curve, poor fit].

For `Cc1ccc(S(=O)(=O)N2CCCCC2)cc1NC(=O)c1ccccn1`, the cell number change was 16.4%. Also, the AC50 under setting [2] was 4.61 µM [rising, single point].

Consider `O=C(O)CCCCNS(=O)(=O)/C=C/c1ccccc1`, for which the cell number change is -45.2%.

Consider `O=c1c2cc(NC(=S)NCCCN3CCC(Cc4ccccc4)CC3)ccc2nc2n1CCCCC2`, for which the cell number change was -1.94%. For the same compound, the concentration at half-maximal activity (AC50) under setting [2] is 0.146 µM [falling, full curve, poor fit].

With `CCOC(=O)C1=C(CSc2nc(-c3ccccc3)ccc2C#N)OC(N)=C(C#N)C1c1cccnc1` (configuration not stated), the AC50 under setting [1] was 0.92 µM [rising, full curve].

Regarding `CC(NCCS(=O)(=O)c1ccc(Cl)cc1)c1cccc(Cl)c1` (configuration not stated), the cell number change is 20.4%.

In the case of `CCOC(=O)c1c(C)[nH]c(C(=O)OCC(=O)N2CCN(S(=O)(=O)c3ccccc3)CC2)c1C`, the cell number change was 72.8%. Under setting [1], the AC50 is 2.59 µM [rising, full curve]. The AC50 under setting [2] was 20.6 µM [rising, partial curve].

With `O=C(Nc1nc2n(n1)C(c1ccc(Cl)cc1)CC(c1ccc(Cl)cc1)N2)c1ccco1` (configuration not stated), under setting [2], the half-maximal activity concentration (AC50) is 0.731 µM [rising, single point].

As for `O=C(CN(CCc1ccccc1)C(=O)c1csnn1)NC1CCCC1`, the cell number change is -5.68%. In addition, under setting [2], the AC50 was 0.82 µM [falling, full curve, poor fit].

On to `O=C(OCC(=O)N1CCCC1)c1cccc(Br)c1`, for which the cell number change was -9.91%.

As to `O=C(CN1C(=O)NC2(CCCCCCC2)C1=O)Nc1ccc(Br)cc1`, the cell number change was -8.48%. Also, the AC50 under setting [2] is 0.58 µM [falling, full curve].

For the compound `COc1ccc(NC(=O)COc2ccc3c(c2)CCC3)cc1`, the AC50 under setting [2] is 5.8 µM [falling, full curve].

In the case of `CC(=O)Nc1ccc(S(=O)(=O)NC(C(=O)O)C2=CCC=CC2)cc1` (configuration not stated), the cell number change is -36.4%. Also, the AC50 under setting [1] was 1.64 µM [falling, partial curve, poor fit].

Regarding `COc1ccc(-n2c(Cc3cccn3C)nnc2SCC(=O)N2CCCc3ccccc32)cc1`, the cell number change was determined as 117%.

Turning to `O=C(/C=C/Nc1cccc([N+](=O)[O-])c1)c1cccs1`, the cell number change came to 132%. Further, the half-maximal activity concentration (AC50) under setting [1] was 32.6 µM [rising, partial curve, poor fit].

As to `Cc1ccc(C(=O)CC(c2cccs2)S(=O)(=O)c2ccc(C)cc2)cc1` (configuration not stated), the cell number change was -3.25%.

On to `CCOc1ccc(OCC)c(NC(=O)CN2CCC(NC(=O)c3cccc(F)c3)CC2)c1`, for which the cell number change was -0.471%.

As for `CC(C)COc1ccc(C(=O)Nc2ccc(SC(F)F)cc2)cc1`, the cell number change is 11.3%. Moreover, the half-maximal activity concentration (AC50) under setting [1] is 0.411 µM [falling, single point]. For the same compound, the AC50 under setting [2] is 0.651 µM [falling, partial curve].

Regarding `CN(CC(=O)Nc1cccc(F)c1)C(=O)c1cn2ccccc2n1`, the cell number change came to 14.1%. Also, the concentration at half-maximal activity (AC50) under setting [1] is 6.51 µM [falling, single point]. Further, under setting [2], the AC50 is 0.164 µM [rising, full curve, poor fit].

On to `COC(/C=C/Nc1ccc(Cl)cc1)=C(C#N)C#N`, for which the cell number change was -45.7%. In addition, the AC50 under setting [2] was 32.6 µM [falling, partial curve, poor fit].

Regarding `COc1ccc(NC(=O)CN(C)C(C)C(=O)NC(=O)NC2CCCCC2)cc1` (configuration not stated), the cell number change stood at 2.31%. Under setting [2], the AC50 is 0.13 µM [rising, full curve].

For the compound `CC(=O)Nc1ccc(-c2csc(NC(=O)C3CCN(S(=O)(=O)c4cccs4)CC3)n2)cc1`, the cell number change is -30.7%. The AC50 under setting [1] is 29.1 µM [falling, single point]. Also, the AC50 under setting [2] was 5.8 µM [falling, single point].

Regarding `CCC(C)NC(=O)c1ccccc1-c1ccccc1C(=O)NC(C)CC` (configuration not stated), the cell number change stood at 0.577%. Moreover, the AC50 under setting [2] was 0.092 µM [falling, full curve, poor fit].

Take `CC(=O)Nc1ccc(NC(=O)CCOc2ccccc2C)cc1`: the cell number change stood at 11.5%. The AC50 under setting [2] is 9.2 µM [falling, partial curve].

On to `CCCc1nc2oc3cc(OC)ccc3c(=O)c2c(=O)n1Cc1ccco1`, for which the cell number change was 1.49%. Under setting [2], the AC50 was 1.84 µM [rising, partial curve].

Consider `CCOc1ccc(NC(=O)N2CCc3ccccc3C2)cc1`, for which the cell number change was -6.44%. The AC50 under setting [1] was 0.259 µM [rising, full curve, poor fit]. Under setting [2], the AC50 is 7.31 µM [rising, partial curve].

As to `CCC(CC)C(=O)Nc1c2c(nn1-c1ccc(OC)cc1)CS(=O)C2` (configuration not stated), the cell number change worked out at 3.45%. The AC50 under setting [2] is 23.1 µM [falling, partial curve].

For `CC(=O)/C(N=Nc1c(C)n(C)n(-c2ccccc2)c1=O)=C(\C)O`, the cell number change was 49.5%. Further, the AC50 under setting [1] is 20.6 µM [rising, single point].

In the case of `CC(=O)Nc1ccc(CN2CCN(c3cccc(C(F)(F)F)c3)CC2)cc1`, the cell number change is -0.445%. In addition, under setting [1], the AC50 was 0.731 µM [falling, full curve]. Also, the AC50 under setting [2] was 0.731 µM [falling, full curve].

As for `CN(C)CCCNCCCNC(=O)c1ccco1`, the AC50 was 4.11 µM [falling, partial curve, poor fit] under setting [1] and 29.1 µM [falling, single point] under setting [2].

Regarding `S=C(NCCc1ccccc1)N1CCc2ccccc2C1`, the cell number change is -20.4%. The AC50 under setting [2] was 0.0651 µM [rising, single point].

On to `O=C(Cn1cnc2ccccc2c1=O)Nc1ccc(S(=O)(=O)N2CCCC2)cc1`, for which the cell number change stood at 10.3%.

`Cc1ccccc1Cn1cc(/C=N/n2cnnc2)c2ccccc21`: the cell number change worked out at 200%. The AC50 under setting [1] was 18.4 µM [rising, partial curve]. In addition, the AC50 under setting [2] was 18.4 µM [rising, partial curve].

As to `Cc1cc(=O)oc2cc(OCC(=O)OCC(=O)NCc3ccc4c(c3)OCO4)ccc12`, the cell number change was -11.1%. Besides, the AC50 under setting [1] was 1.3 µM [rising, full curve, poor fit].

Take `COc1ccc(-c2csc3ncnc(N4CCN(c5cccc(C)c5C)CC4)c23)cc1`: the cell number change amounted to 55.4%.

As to `C=C(C)CN(CC)C(=O)CCc1nnc(CCCc2ccccc2)o1`, the cell number change was -8.82%. Further, the half-maximal activity concentration (AC50) under setting [2] is 0.184 µM [falling, full curve, poor fit].

In the case of `CCCCc1ccc(S(=O)(=O)N2CCN(C(=O)c3ccco3)CC2)cc1`, the cell number change was -27.5%. The half-maximal activity concentration (AC50) under setting [2] is 29.1 µM [rising, single point].

In the case of `NC(=O)c1ccc(NC(=O)CCN=C2NS(=O)(=O)c3ccccc32)cc1`, the cell number change is -33.8%. The concentration at half-maximal activity (AC50) under setting [1] is 5.8 µM [falling, full curve, poor fit]. For the same compound, under setting [2], the half-maximal activity concentration (AC50) was 4.61 µM [falling, full curve].

As for `CCCC(=O)Nc1ccccc1NC(=O)c1ccc(OCC)c(OCC)c1`, the cell number change stood at 6.04%.

Regarding `Cc1ccc(SCC(=O)NC(=O)NCc2ccccc2)c(C)c1`, the cell number change worked out at 40.4%. The concentration at half-maximal activity (AC50) under setting [1] was 9.2 µM [rising, partial curve]. Besides, the AC50 under setting [2] was 13 µM [rising, partial curve].

`Cc1cc2nccc(-c3ccc(Cl)cc3Cl)n2n1`: the cell number change came out at 13.3%. Further, under setting [2], the AC50 is 0.146 µM [rising, full curve].

Consider `CCn1c(CN2CCCCCC2=O)nnc1SCc1cnc(-c2ccccc2)s1`, for which the cell number change stood at 2.33%. In addition, the AC50 under setting [1] was 0.00411 µM [falling, full curve, poor fit].

For the compound `NNC(=O)C1=NOC(CNc2ncc(C(F)(F)F)cc2Cl)C1` (configuration not stated), the cell number change came out at 1.65%. Moreover, the AC50 under setting [1] is 0.326 µM [falling, partial curve, poor fit]. Under setting [2], the AC50 is 6.51 µM [falling, single point].

Consider `Fc1cc(Cl)ccc1NC(=S)NCCN1CCOCC1`, for which the cell number change was -28.1%. Also, under setting [1], the concentration at half-maximal activity (AC50) was 3.26 µM [falling, single point]. Moreover, under setting [2], the AC50 was 4.11 µM [falling, full curve, poor fit].

Regarding `COC(=O)c1ccc2c(c1)NC(=O)C(N1CCCCC1)S2` (configuration not stated), the cell number change is 2.58%. Moreover, the concentration at half-maximal activity (AC50) under setting [2] is 8.2 µM [rising, partial curve].

Consider `CCN1C(=O)[C@H]2[C@@H](c3ccc(-c4ccc(F)cc4)c(OC)c3)N3CCC[C@@]3(C(=O)OC)[C@H]2C1=O`, for which the cell number change worked out at 26.1%.

In the case of `COc1ccc(/C=C/C(=O)NC(=S)N2CCN(c3ccccc3OC)CC2)cc1`, the cell number change turned out to be 25.2%. In addition, the half-maximal activity concentration (AC50) under setting [2] was 0.00517 µM [rising, full curve, poor fit].

`CC(C)CCNC(=O)C(c1ccc(O)cc1)N(Cc1cccs1)C(=O)C1COc2ccccc2O1` (configuration not stated): under setting [2], the AC50 is 20.6 µM [rising, single point].

Regarding `CC(C)C(=O)Nc1ccc2nn(-c3ccccc3)nc2c1`, the cell number change was -21.9%. Also, under setting [1], the concentration at half-maximal activity (AC50) is 2.91 µM [falling, single point].

For the compound `COc1cccc(-c2nc(CS(=O)(=O)CC(=O)Nc3c(C)cccc3C)c(C)o2)c1`, the AC50 reads like this: under setting [1], 2.59 µM [rising, partial curve]; under setting [2], 4.11 µM [rising, partial curve, poor fit].

For `O=[N+]([O-])c1cc([N+](=O)[O-])c(Oc2cncc(Cl)c2)cc1NN1CCCCC1`, the cell number change was found to be 2.4%. In addition, the AC50 under setting [1] was 6.51 µM [rising, single point]. For the same compound, the AC50 under setting [2] is 16.4 µM [falling, single point].

Turning to `CC(C)[C@@H]1CC[C@@H](C)C[C@H]1OC(=O)C[n+]1cc(-c2ccc(Cl)cc2)n2c1CCCCC2`, the cell number change is -25.6%. Further, the AC50 under setting [1] was 4.11 µM [falling, single point]. For the same compound, the half-maximal activity concentration (AC50) under setting [2] is 6.51 µM [falling, full curve, poor fit].

In the case of `Cc1ccnc(NC(=O)CCC(=O)N(CC(=O)NCc2ccccc2)Cc2ccc(F)cc2)c1`, the half-maximal activity concentration (AC50) under setting [2] was 6.51 µM [falling, partial curve].

For the compound `CN(c1ccccc1C(=O)NCc1ccccc1Cl)S(=O)(=O)c1ccccc1`, the cell number change is -2.19%. Besides, the AC50 under setting [2] was 13 µM [falling, partial curve, poor fit].

In the case of `COC(=O)c1cc(NCc2ccc3c(c2)OCO3)ccc1N1CCOCC1`, the cell number change was -8%. For the same compound, under setting [2], the AC50 was 1.64 µM [rising, partial curve].

In the case of `Fc1ccc(-c2nnc(Cc3nnc(-c4ccc(F)cc4)o3)o2)cc1`, the cell number change was 7.85%. For the same compound, the concentration at half-maximal activity (AC50) under setting [2] was 23.1 µM [rising, single point].

As to `NS(=O)(=O)c1ccc(CCNC(=O)c2ccccc2[N+](=O)[O-])cc1`, the cell number change stood at 136%. The concentration at half-maximal activity (AC50) under setting [1] was 29.1 µM [rising, single point].

On to `CCOC(=O)C1CCN(C(=O)CN(c2cc(OC)ccc2OC)S(=O)(=O)c2ccccc2)CC1`, for which the cell number change is -14.7%.
